Test results taken from doi:10.1101/829226.

Amino acid sequences for entries named in this document (tags omitted). A change or cut given only in a name is not applied to a line headed by its entry.
UniProt O23628: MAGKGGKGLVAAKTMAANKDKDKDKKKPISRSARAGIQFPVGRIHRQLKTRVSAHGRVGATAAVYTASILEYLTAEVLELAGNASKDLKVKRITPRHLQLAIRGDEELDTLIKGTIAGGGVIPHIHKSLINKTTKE

B1: DEK-DOMAIN CONTAINING PROTEIN3 (DEK3) (protein, UniProt Q9SUA1 1-763)
chain: MGEDTKATIEPTANKTTSLEKPSEAMAGKENAGGKETQELAKDEDMAEPDNMEIDAQIKKDDEKAETEDKESEVKKNEDNAETQKMEEKVEVTKDEGQAEATNMDEDADGKKEQTDDGVSVEDTVMKENVESKDNNYAKDDEKETKETDITEADHKKAGKEDIQHEADKANGTKDGNTGDIKEEGTLVDEDKGTDMDEKVENGDENKQVENVEGKEKEDKEENKTKEVEAAKAEVDESKVEDEKEGSEDENDNEKVESKDAKEDEKEETNDDKEDEKEESKGSKKRGKGTSSGGKVREKNKTEEVKKDAEPRTPFSDRPVRERKSVERLVALIDKDSSKEFRVEKGRGAYLKDIPNVANKVMRKRSDETLKLLHPILFGGRRGKAAQIKTNILGFSGFVWHGDEKKAKEKVKEKLEKCTKEKLWEFCDVLDIHITKATTKKEDIITKLFEFLEKPHVTGDVTGDTTVSEKEKSSKGAKRKRTPKKTSPTAGSSSSKRSAKSQKKSEEATKVVKKSLAHSDDESEEEKEEEEKQEEEKAEEKEEKKEEENENGIPDKSEDEAPQPSESEEKDESEEHSEEETTKKKRGSRLSAGKKESAGRARNKKAVVAAKSSPPEKITQKRSSAKRKKTDDDSDTSPKASSKRKKSENPIKASPAPSKSASKEKPVKRAGKGKDKPSDKVLKNAIVEILKRVDFSTATFTDILKELAKEFTEDLTPRKSSIKMIIQEELTKLADEEEEEEKKEEDSEKEEAGGSGGGEEVKA
B2: DEK2 (protein, UniProt Q84JB7 1-530)
chain: MATETLDEKTPEVNSPAKEEIDVVPKEEKEVEKEKVDSPRIGEAEEEKKEDEEEGEAKEGELGEKDKEDDVESEEEEEEEEGSGSKKSSEKETVTPTSERPTRERKKVERFSLSTPMRAPPSKSVSIEKGRGTPLREIPNVAHKLSKRKADDNLMLLHTILFGKKAKAQMVKRNIGQFSGFAWSEKEEEKQRARIKEKIDKCVKEKLIVFCDVLDIPISRSNVKKEELAVKVLEFLESPKETRDVIIADQEKAKKRKSTPKRGKSGESSDTPAKRKRQTKKRDLPSDTEEGKDEGDADSEGTNDPHEEDDAAPEEESDHEKTDTDDEKDEVEVEKPSKKKSSSKKTVEESSGSKGKDKQPSAKGSARSGEKSSKQIAKSTSSPAKKQKVDHVESSKEKSKKQPSKPQAKGSKEKGKATKKGKAKAEPTRKEMLEVVSKILKEVDFNTATLSDILQKLSDHFGVELSHRKPEVKDVITEAINAMTDDEEEDEEEEAEAGSDKEKEEVKGEEEEEKAEAESDKEKEKEEPKD
B3: DEK4 (protein, UniProt F4K4Y5 1-778)
chain: MGEEDTKVIVEPTANGTSSLQKTSDAISGKEVQENASGKEVQESKKEEDTGLEKMEIDDEGKQHEGESETGDKEVEVTEEEKKDVGEDKEQPEADKMDEDTDDKNLKADDGVSGVATEEDAVMKESVESADNKDAENPEGEQEKESKEEKLEGGKANGNEEGDTEEKLVGGDKGDDVDEAEKVENVDEDDKEEALKEKNEAELAEEEETNKGEEVKEANKEDDVEADTKVAEPEVEDKKTESKDENEDKEEEKEDEKEESMDDKEDEKEESNDDDKEDEKEESNDDKEDKKEDIKKSNKRGKGKTEKTRGKTKSDEEKKDIEPKTPFFSDRPVRERKSVERLVAVVDKDSSREFHVEKGKGTPLKDIPNVAYKVSRKKSDEVFKQLHTILFGGKRVKATQLKAHILRFSGYKWQGDEEKAKLKVKEKFEKINKEKLLEFCDLFDISVAKATTKKEDIVTKLVEFLEKPHATTDVLVNEKEKGVKRKRTPKKSSPAAGSSSSKRSAKSQKKTEEATRTNKKSVAHSDDESEEEKEDDEEEEKEQEVEEEEEENENGIPDKSEDEAPQLSESEENVESEEESEEETKKKKRGSRTSSDKKESAGKSRSKKTAVPTKSSPPKKATQKRSAGKRKKSDDDSDTSPKASSKRKKTEKPAKEQAAAPLKSVSKEKPVIGKRGGKGKDKNKEPSDEELKTAIIDILKGVDFNTATFTDILKRLDAKFNISLASKKSSIKRMIQDELTKLADEAEDEEGEEEDAEHEEEEEKEKAKGSGGGEEVKA

The binders below were run against HTA11-FLAG (H2A.Z) (Arabidopsis thaliana) (UniProt O23628) (assay: affinity purification with mass spectrometry).

Q: For B1, which binding is on record?
A: binds

Q: B2 was tested. Which binding did it give?
A: binds

Q: For B3, which binding is on record?
A: binds

Results are given in words; binding and its absence hold for the method and conditions named. In cells and extracts the contact can be indirect. A yes stands for co-enrichment or nearness to the bait. Other partners may have been found.
